About 3,700 (1.2%) of roughly 300,000 compounds were called active. Only results without a clear call are listed here; the source files them as inconclusive. Calls come from the whole dose curve; tested in HEK293 cells. Some tests of the compounds listed are not included; inactive here does not mean inactive elsewhere.
assay: qHTS for Inhibitors of binding or entry into cells for Lassa Virus; details: Lassa virus pseudotype entry inhibition, cell reporter; note: nearly all actives have a fitted effect of over 50% in size
Potency is the fitted concentration of half-maximal effect.

| SMILES | Potency |
| --- | --- |
| CN(C)c1ccc(C(=O)NCC2(N(C)C)CCCCC2)cc1 | inconclusive: 1 µM |
| CCN1CCCC(OC(=O)C2(O)c3ccccc3C=Cc3ccccc32)C1 (stereo not given) | inconclusive: 29.1 µM |
| CCCCC(CC)C(=O)N1CCN(C/C=C/c2ccccc2)CC1 (stereo not given) | inconclusive: 22.4 µM |
| CC(C)Oc1ccc(C(=O)NCC2(N(C)C)CCCCC2)cc1 | inconclusive: 2.82 µM |
| CN(C)C1(CNC(=O)c2ccc(Br)cc2)CCCCC1 | inconclusive: 3.98 µM |
